For at least one compound, name, drawing or mass did not settle the structure.
Test system: RGCs and axons
Assay: Intravitreal rotenone, RGC death and axon degeneration at three weeks
Type: in vivo, Mice
Details: 15 mM rotenone and 100 mM compound intravitreally, three weeks (FIG. 6A, 6B)

## CC[C@H](C)NC(=O)c1cc(-c2cnn([C@H](c3ccc(C(F)(F)F)nc3)C3CCN(C(=O)OC(C)(C)C)CC3)c2)cn2nc(N)nc12 [Example I-81, tert-Butyl 4-{(4-{2-amino-8-[(2S)-butan-2-ylcarbamoyl][1,2,4]triazolo[1,5-a]pyridin-6-yl}-1H-pyrazol-1-yl)[6-(trifluoromethyl)pyridin-3-yl]methyl}piperidine-1-carboxylate]
  RGC death (RBPMS labelled RGCs): protected against mitochondrial toxicity induced RGC death

Source: US20230086702A1, “SUBSTITUTED 2-AMINO-PYRAZOLYL-[1,2,4]TRIAZOLO[1,5A]PYRIDINE DERIVATIVES AND USE THEREOF” (The Johns Hopkins University, priority 2019, published 2023)
